Assay results taken from patent US12708605B2, “Method of administering a hormone encapsulated by a hydrogel with a dual chamber syringe” (VITALTE LIFESCIENCES INC., priority 2024, dated 2026).
At least one compound was matched to its structure with a doubt left.

Key:
[1] = E2 release from E2 hydrogel microspheres (same release assay as discs); assay type: physicochemical
[2] = E2 release from hydrogel discs, E2 pellets and free E2 powder into incubation medium (ELISA)

C[C@]12CC[C@@H]3c4ccc(O)cc4CC[C@H]3[C@@H]1CC[C@@H]2O [Free E2 powder, Beta-estradiol]
E2 release level on day 3, comparison in words [1]: approximates the saturation level of E2 in the incubation medium
E2 release concentration in incubation medium ([2]; day 1 / 24 hours, 37° C., 50 mL incubation medium): about 1.85 mg/L
E2 release concentration in incubation medium ([2]; day 2 / 48 hours): reached the saturation point of the incubation media
accumulated E2 release concentration in incubation medium ([2]; day 3 / 72 hours): maintained the saturation point concentration
